According to the supplement of paper PMC6078165:
Values are relative to the signal before dosing, not to a vehicle control; the signal also falls without drug.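 Fibroblast labels name human fibroblasts: mostly primary ones from tissues such as uterus (C12385, HUF), lung (H6013), bone (Hs27A), adrenal (HADF) and skin (WS1), plus mammary HMF and breast cancer-associated Hs343T. The cancer cells are basal-like or mesenchymal-like triple-negative breast cancer lines. The paper calls a changed response a hit when it shifts by more than 3x the replicate standard deviation. The tissue of the other fibroblasts is not given here.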 Numbered stars: 1 amine (or outer) side, 2 acyl side, 3 side chain; on linkers, the order of the positions; unused ones are H or OH. Bridge positions count the residues as written; N and C are the ends. Square brackets hold non-standard residues; d marks the D form. Peptide text beside a SMILES is read from it. I, II: the chains in the order shown. Actinocin(9to1) = Cc1c2oc3c(C)ccc(C(=O)[*:1])c3nc-2c(C(=O)[*:2])c(N)c1=O; NMeV = CN[C@H](C(=O)O)C(C)C; Sar = CNCC(=O)O

Tested on: MDAMB436
Assay: relative JC-1 red fluorescence (viability) vs pre-drug, coculture with fibroblast (fraction); higher = more viable cancer cells
Procedure: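 JC-1 labelled TNBC cells cocultured 1:1 (1,500 cells each) with CellTrace Violet stained primary or stromal fibroblasts in 384-well plates in FluoroBrite medium, treated with one of 42 anticancer drugs at 0.1, 1, 10 or 100 uM. JC-1 red fluorescence (mitochondrial integrity in cancer cells only) was read by plate reader every 8 h for 72 h. Values are normalised to each well's pre-drug value. The stock of one drug was tenfold lower, so its dose labels may be too high.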

Cc1c2oc3c(C)ccc(C(=O)N[C@@H]4C(=O)N[C@H](C(C)C)C(=O)N5CCC[C@H]5C(=O)N(C)CC(=O)N(C)[C@@H](C(C)C)C(=O)O[C@@H]4C)c3nc-2c(C(=O)N[C@@H]2C(=O)N[C@H](C(C)C)C(=O)N3CCC[C@H]3C(=O)N(C)CC(=O)N(C)[C@@H](C(C)C)C(=O)O[C@@H]2C)c(N)c1=O [Dactinomycin] (I: T[dV]P[Sar][NMeV] / II: T[dV]P[Sar][NMeV]; ester I:1-I:C, II:1-II:C; linker I:N-II:N via Actinocin(9to1))
relative JC-1 red fluorescence
Settings	8 h	16 h	24 h	32 h	40 h	48 h	56 h	64 h	72 h
10 µM, coculture fibroblast: C12385	0.801	0.776	0.76	0.698	0.674	0.6634	0.66	0.6538	0.658
10 µM, coculture fibroblast: H6013	0.845	0.816	0.797	0.799	0.787	0.813	0.791	0.784	0.758
10 µM, coculture fibroblast: H6019	0.7564	0.729	0.719	0.664	0.639	0.626	0.616	0.609	0.596
10 µM, coculture fibroblast: H6076	0.746	0.676	0.67	0.63	0.633	0.607	0.623	0.623	0.614
10 µM, coculture fibroblast: H6231	0.67	0.646	0.732	0.663	0.674	0.662	0.675	0.672	0.674
10 µM, coculture fibroblast: HADF	0.839	0.854	0.852	0.858	0.88	0.764	0.779	0.786	0.875
10 µM, coculture fibroblast: HCFa	0.811	0.791	0.768	0.745	0.756	0.781	0.746	0.746	0.712
10 µM, coculture fibroblast: HCPF	0.723	0.683	0.709	0.656	0.663	0.644	0.647	0.64	0.651
10 µM, coculture fibroblast: HHSteC	0.834	0.843	0.843	0.836	0.865	0.886	0.854	0.852	0.821
10 µM, coculture fibroblast: HMF	0.764	0.75	0.796	0.778	0.8	0.782	0.82	0.796	0.795
10 µM, coculture fibroblast: HPFa	0.8321	0.8209	0.818	0.798	0.819	0.848	0.809	0.819	0.791
10 µM, coculture fibroblast: HUF	0.83	0.77	0.745	0.676	0.64	0.618	0.607	0.602	0.603
10 µM, coculture fibroblast: Hs5	0.793	0.747	0.74	0.689	0.692	0.65	0.66	0.638	0.644
10 µM, coculture fibroblast: Hs27A	0.811	0.812	0.815	0.813	0.818	0.773	0.842	0.804	0.794
10 µM, coculture fibroblast: Hs343T	0.748	0.696	0.708	0.67	0.688	0.665	0.679	0.686	0.702
10 µM, coculture fibroblast: WS1	0.79	0.75	0.736	0.673	0.661	0.65	0.6553	0.6419	0.6534
100 µM, coculture fibroblast: C12385	0.73	0.689	0.675	0.611	0.5905	0.58759	0.577	0.56728	0.5694
100 µM, coculture fibroblast: H6013	0.807	0.778	0.779	0.776	0.766	0.801	0.764	0.756	0.711
100 µM, coculture fibroblast: H6019	0.7257	0.689	0.7046	0.66455	0.6636	0.6579	0.633	0.62787	0.6228
100 µM, coculture fibroblast: H6076	0.708	0.674	0.704	0.668	0.651	0.635	0.644	0.634	0.621
100 µM, coculture fibroblast: H6231	0.729	0.67	0.724	0.645	0.611	0.583	0.579	0.555	0.545
100 µM, coculture fibroblast: HADF	0.734	0.72	0.708	0.69	0.674	0.706	0.646	0.649	0.61
100 µM, coculture fibroblast: HCFa	0.8	0.793	0.7879	0.791	0.7758	0.81	0.759	0.766	0.725
100 µM, coculture fibroblast: HCPF	0.728	0.708	0.722	0.655	0.636	0.605	0.583	0.574	0.556
100 µM, coculture fibroblast: HHSteC	0.781	0.7782	0.768	0.769	0.773	0.805	0.749	0.734	0.694
100 µM, coculture fibroblast: HMF	0.753	0.727	0.745	0.715	0.718	0.697	0.692	0.673	0.666
100 µM, coculture fibroblast: HPFa	0.872	0.872	0.877	0.859	0.883	0.919	0.867	0.87	0.835
100 µM, coculture fibroblast: HUF	0.796	0.7487	0.744	0.689	0.651	0.638	0.614	0.609	0.60841
100 µM, coculture fibroblast: Hs5	0.753	0.729	0.73	0.677	0.667	0.628	0.636	0.605	0.605
100 µM, coculture fibroblast: Hs27A	0.7558	0.727	0.72	0.719	0.709	0.781	0.693	0.686	0.622
100 µM, coculture fibroblast: Hs343T	0.7954	0.76	0.738	0.6974	0.687	0.65	0.644	0.629	0.624
100 µM, coculture fibroblast: WS1	0.72	0.676	0.67	0.605	0.584	0.572	0.564	0.551	0.545
